Test results as given in US12213481B1, “4,4′-[(2-hydroxypropane-1,3-diyl)bis(oxy)]dibenzaldehyde as an eco-friendly insecticidal agent against Spodoptera littoralis (boisd.)” (KING FAISAL UNIVERSITY, priority 2023, dated 2025).

Tested on: Spodoptera littoralis larvae (2nd and 4th instars, laboratory strain of cotton leafworm)
Assay: Insecticidal leaf dip bioassay screening
Settings: after 72 hours of treatment, probit (LDP-line)

| SMILES | Slope (2nd instar larvae) | Slope (4th instar larvae) |
| --- | --- | --- |
| O=Cc1ccc(OCC(O)COc2ccc(C=O)cc2)cc1 [Compound 1, 4,4′-[(2-hydroxypropane-1,3-diyl)bis(oxy)]dibenzaldehyde] | 0.246 ± 0.0792 | 0.297 ± 0.097 |
| CCOC(=O)NCCOc1ccc(Oc2ccccc2)cc1 [fenoxycarb, reference compound] | 0.298 ± 0.0808 | 0.225 ± 0.0870 |
